Source: PubChem BioAssay AID1259327 (Drosophila RNAi Screening Center, 2017)

- Assay: 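Baseline ATP after transmembrane-protein gene knock-down with water vehicle only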
- Cells: Drosophila S2R+ cells
- Knock-down reagent: long dsRNA against Drosophila genes
- Duration: 5 days (water added on day 4, read one day later)
- Challenge: water added as vehicle, no metal, one day before read-out
- Measurement: 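Total ATP measured by luciferase light, scaled to plate mean, duplicates averaged, then z-scored across plates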
- Reading the numbers: ATP z-score: higher = more total ATP than typical wells; ATP luminescence: higher = more total ATP
- Call rule: 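a hit is any knock-down whose absolute ATP z-score is greater than 1.5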
- Calls: active = hit: ATP up or down; inactive = no clear ATP change
The deposit covers about 3,100 reagents; this is an unselected part. 378 of all reagents (12%) were called active. 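Hits include both directions; z-score sign shows ATP rise or fall; raw luminescence values are not plate-normalised.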 Reagents against one gene are numbered here. The record does not give: the amount of reagent.

no.	gene	reagent no.	ATP z-score, duplicate mean	ATP luminescence, replicate 1 (RLU)	ATP luminescence, replicate 2 (RLU)	Call
1	Sec61gamma (GeneID 32968)	1	0.932	8.17e5	8.72e5	inactive
2	Sec61gamma (GeneID 32968)	2	1.98	8.19e5	9.50e5	active
3	CG31600 (GeneID 318834)	1	0.233	6.02e5	5.97e5	inactive
4	CG31600 (GeneID 318834)	2	-1.15	3.84e5	4.14e5	inactive
5	PGRP-SA (GeneID 32099)	1	-1.91	6.51e5	6.21e5	active
6	ppk17 (GeneID 35006)	1	0.122	7.01e5	7.76e5	inactive
7	ppk17 (GeneID 35006)	2	1.86	5.44e5	6.41e5	active
8	CG34450 (GeneID 5740775)	1	0.41	6.84e5	8.10e5	inactive
9	CG34450 (GeneID 5740775)	2	1.5	1.13e6	9.45e5	active
10	et (GeneID 32975)	1	-0.403	6.56e5	7.44e5	inactive
11	Ir68a (GeneID 39269)	1	0.646	1.16e6	8.07e5	inactive
12	clumsy (GeneID 35394)	1	0.705	8.32e5	7.71e5	inactive
13	CG5888 (GeneID 34980)	1	0.104	3.65e5	6.16e5	inactive
14	CG5888 (GeneID 34980)	2	-0.131	1.20e6	1.05e6	inactive
15	SIFaR (GeneID 42530)	1	0.0873	3.66e5	6.12e5	inactive
16	SIFaR (GeneID 42530)	2	-0.0267	2.94e5	7.70e5	inactive
17	eloF (GeneID 41211)	1	-0.0921	2.83e5	7.84e5	inactive
18	eloF (GeneID 41211)	2	-0.343	8.69e5	7.02e5	inactive
19	BicC (GeneID 34946)	1	0.5	7.41e5	8.17e5	inactive
20	BicC (GeneID 34946)	2	0.631	9.88e5	8.17e5	inactive
21	CG2901 (GeneID 31338)	1	-0.584	7.63e5	7.26e5	inactive
22	CG2901 (GeneID 31338)	2	0.775	4.98e5	5.10e5	inactive
23	CG11353 (GeneID 38560)	1	0.201	6.66e5	8.42e5	inactive
24	CG11353 (GeneID 38560)	2	-2.03	3.22e5	3.34e5	active
25	SdhC (GeneID 41340)	1	-0.82	2.82e5	6.22e5	inactive
26	SdhC (GeneID 41340)	2	-0.977	3.76e5	4.48e5	inactive
27	CG32795 (GeneID 31270)	1	0.259	7.15e5	8.30e5	inactive
28	CG32795 (GeneID 31270)	2	-0.103	7.10e5	7.54e5	inactive
29	Strn-Mlck (GeneID 36753)	1	0.247	7.81e5	7.33e5	inactive
30	Strn-Mlck (GeneID 36753)	2	-0.86	4.72e5	6.12e5	inactive
31	Strn-Mlck (GeneID 36753)	3	0.643	7.11e5	5.55e5	inactive
32	aralar1 (GeneID 43616)	1	-0.981	6.04e5	6.05e5	inactive
33	aralar1 (GeneID 43616)	2	-0.0919	1.02e6	6.21e5	inactive
34	kirre (GeneID 31292)	1	-1.59	4.44e5	6.66e5	active
35	kirre (GeneID 31292)	2	0.967	9.98e5	9.42e5	inactive
36	Sfxn1-3 (GeneID 40552)	1	-0.818	8.35e5	7.44e5	inactive
37	polyph (GeneID 36161)	1	1.15	6.86e5	7.61e5	inactive
38	Gr97a (GeneID 117338)	1	2.15	1.14e6	1.21e6	active

Quoted from the entries so far for reference:
no.	gene	reagent no.	ATP z-score, duplicate mean	ATP luminescence, replicate 1 (RLU)	ATP luminescence, replicate 2 (RLU)	Call
33	aralar1 (GeneID 43616)	2	-0.0919	1.02e6	6.21e5	inactive
34	kirre (GeneID 31292)	1	-1.59	4.44e5	6.66e5	active
